Results deposited as PubChem BioAssay AID743454 (Peter MacCallum Cancer Centre, 2014)
Assay: 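Genes whose loss kills vorinostat-resistant colon cancer cells under vorinostat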 (primary screen). Cell system: human HCT116-VR colon cancer cells, selected for vorinostat resistance. Reagent: siRNA pool against human genes, 40 nM siRNA pool. Time to read-out: vorinostat for 24 h, read-out about 72 h after transfection. Treatment: vorinostat at 2.5 µM final. Detection: 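Cell viability by CellTiter-Fluor and caspase 3/7 activity by luminescence, each scaled to mock wells per plate, duplicates averaged, then robust z-scored over all plates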. Scale: viability robust z-score: higher = more viable cells than screen typical; caspase robust z-score: higher = more caspase 3/7 activity than screen typical. Rule for the call: 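a knock-down is a hit when classed RV1 or RV2 for lowered viability, or CA1 or CA2 for caspase activation; those lethal without drug were dropped; hits were retested singly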.
Here is a random part of about 18,000 reagents. Over the whole deposit, 450 (2.5%) got an active call. 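Single biological run; no consistent viability z cut-off exists, so the class columns, not z-scores, define the calls.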 Reagent sequences are not shown.

The opening 4 entries, ahead of the listing:
target | viability hit class | caspase hit class | viability robust z-score | caspase robust z-score | outcome
KRT15 | no change | no change | 1.38 | -0.8 | inactive
GIPC1 | no change | no change | 0.02 | -0.22 | inactive
OLIG3 | no change | no change | -0.08 | -0.16 | inactive
PCDHGC5 | no change | no change | 0.18 | 2.3 | inactive

Main list, from the first entry:
target | viability hit class | caspase hit class | viability robust z-score | caspase robust z-score | outcome
KRT15 | no change | no change | 1.38 | -0.8 | inactive
GIPC1 | no change | no change | 0.02 | -0.22 | inactive
OLIG3 | no change | no change | -0.08 | -0.16 | inactive
PCDHGC5 | no change | no change | 0.18 | 2.3 | inactive
CACNA1A | no change | CA2 (caspase activation) | -1.47 | 5.94 | active
CAMKMT | no change | no change | 0.18 | -0.82 | inactive
HAMP | no change | no change | 1.53 | -0.14 | inactive
GRXCR1 | no change | no change | 0.75 | -1 | inactive
CCDC159 | no change | no change | -1.25 | -0.3 | inactive
TTC32 | no change | no change | -0.54 | 2.96 | inactive
GPR15LG | no change | no change | 1.88 | 0.52 | inactive
LINC01465 | no change | no change | 0.22 | 2.9 | inactive
LINC02145 | no change | no change | -0.16 | 0.5 | inactive
KPNA5 | no change | no change | 0.04 | 0.96 | inactive
ZNF714 | no change | no change | 0.84 | 0.39 | inactive
OR8S1 | no change | no change | 0.56 | -0.12 | inactive
LRP5 | no change | no change | 0.94 | 1.84 | inactive
CMTM8 | no change | no change | 0.54 | -0.37 | inactive
CSNK2A2 | no change | no change | -2.63 | 4.09 | inactive
TMEM220 | no change | no change | -1.02 | 3.68 | inactive
CCKBR | no change | no change | -0.36 | -0.66 | inactive
HNRNPC | no change | no change | -2.99 | 4.75 | inactive
SLC17A1 | no change | no change | 0.84 | -0.44 | inactive
PFN1 | no change | no change | 0.04 | 1.35 | inactive
DMRTA1 | no change | no change | -0.42 | 0.78 | inactive
NUTF2 | no change | no change | -4.03 | 3.74 | inactive
HAP1 | no change | no change | -0.38 | 1.42 | inactive
RSPRY1 | no change | no change | -1.22 | -0.89 | inactive
FAM53B | no change | no change | 1.08 | 0.14 | inactive
GPR20 | no change | no change | -0.98 | 0.42 | inactive
MICU2 | no change | no change | 0.62 | -0.24 | inactive
LIM2 | no change | no change | 0.51 | -0.46 | inactive
SLC67A1 | no change | no change | -1.5 | 4.88 | inactive
LCE2D | no change | no change | 0.6 | 2.39 | inactive
UBQLN1 | no change | no change | -1.03 | -0.66 | inactive
COL8A1 | no change | no change | 0.82 | 0.19 | inactive
RFX2 | no change | no change | 0.41 | 2.01 | inactive
CATSPER4 | no change | CA2 (caspase activation) | -1.75 | 5.19 | active
HYKK | no change | CA2 (caspase activation) | -0.73 | 5.59 | active
